The values that follow come from article PMC5844867.

Protein sequences, listed by entry. Tags and fused reporters are not part of them. Residues count along the entry.
UniProt Q60631, residues 60-152: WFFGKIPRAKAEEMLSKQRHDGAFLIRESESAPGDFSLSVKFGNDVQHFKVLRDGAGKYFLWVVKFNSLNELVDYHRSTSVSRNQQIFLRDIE
UniProt P20273, residues 20-847: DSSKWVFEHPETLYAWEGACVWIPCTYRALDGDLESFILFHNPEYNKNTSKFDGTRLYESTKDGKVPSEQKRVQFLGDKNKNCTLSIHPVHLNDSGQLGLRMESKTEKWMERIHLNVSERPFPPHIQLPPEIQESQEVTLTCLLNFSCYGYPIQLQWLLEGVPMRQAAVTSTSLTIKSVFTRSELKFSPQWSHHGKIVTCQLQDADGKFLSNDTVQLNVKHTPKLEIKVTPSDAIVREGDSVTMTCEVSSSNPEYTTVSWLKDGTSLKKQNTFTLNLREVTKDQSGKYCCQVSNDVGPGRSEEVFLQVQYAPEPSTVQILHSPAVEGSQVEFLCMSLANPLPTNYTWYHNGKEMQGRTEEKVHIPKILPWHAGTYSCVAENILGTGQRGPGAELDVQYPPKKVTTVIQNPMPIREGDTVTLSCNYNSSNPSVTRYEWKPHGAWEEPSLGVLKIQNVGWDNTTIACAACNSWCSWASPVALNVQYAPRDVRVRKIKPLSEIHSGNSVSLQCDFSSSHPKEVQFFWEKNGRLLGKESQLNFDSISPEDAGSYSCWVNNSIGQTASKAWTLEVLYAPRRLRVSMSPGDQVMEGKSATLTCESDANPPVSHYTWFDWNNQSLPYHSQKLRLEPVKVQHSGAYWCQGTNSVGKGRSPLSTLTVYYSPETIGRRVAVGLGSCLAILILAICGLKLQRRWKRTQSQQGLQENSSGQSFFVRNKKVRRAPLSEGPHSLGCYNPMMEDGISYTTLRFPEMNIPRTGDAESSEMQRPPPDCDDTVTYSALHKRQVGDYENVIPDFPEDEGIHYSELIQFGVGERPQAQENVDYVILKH
UniProt Q13588: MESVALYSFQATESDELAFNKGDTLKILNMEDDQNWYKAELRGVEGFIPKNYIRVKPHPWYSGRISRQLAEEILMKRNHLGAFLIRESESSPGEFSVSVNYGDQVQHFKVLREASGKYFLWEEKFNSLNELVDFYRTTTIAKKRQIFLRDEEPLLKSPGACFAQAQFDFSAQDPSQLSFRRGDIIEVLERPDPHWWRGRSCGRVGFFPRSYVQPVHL
UniProt P11912, residues 33-226: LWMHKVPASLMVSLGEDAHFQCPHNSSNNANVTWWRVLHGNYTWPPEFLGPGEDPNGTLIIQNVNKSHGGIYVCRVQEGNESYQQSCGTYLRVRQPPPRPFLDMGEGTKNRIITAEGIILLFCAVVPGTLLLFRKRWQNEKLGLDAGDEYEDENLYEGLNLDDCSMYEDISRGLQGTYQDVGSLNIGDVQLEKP
UniProt P62993: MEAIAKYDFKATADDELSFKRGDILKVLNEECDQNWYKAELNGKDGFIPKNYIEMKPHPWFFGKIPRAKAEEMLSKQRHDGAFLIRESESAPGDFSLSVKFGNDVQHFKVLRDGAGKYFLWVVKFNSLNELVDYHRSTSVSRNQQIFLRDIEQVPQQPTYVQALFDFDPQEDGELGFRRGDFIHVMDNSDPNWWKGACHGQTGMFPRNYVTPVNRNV

These are yes or no findings as the source states them, for the method shown. In cells and extracts the contact can be indirect. These calls come from enrichment with a bait or labelling near it, and not all partners need be listed.

Assay [1] has as its target Grb2 SH2 domain fused to GST (mouse) (UniProt Q60631). Kind of assay: affinity purification with mass spectrometry; Grb2 SH2 domain as bait, lysates of DG75 cells activated via their endogenous mIgM-BCR; SILAC; only the target purified.
For assay [2], the target named is T1, biotinylated human-ε-phospho-ITT peptide (human).
T1 sequence (peptide, phosphotyrosine (D(p)YTN); biotin on the N-terminus): RPQTSLDYTNVLQPHA
The assay is described as follows: affinity purification with mass spectrometry; biotinylated phospho-ITT peptide as bait, streptavidin-sepharose, lysates of human B cells in 1% NP40 lysis buffer, 4 °C; SILAC, with a non-phosphorylated peptide and non-labeled cells as control; only the target purified.

Turning to “CD22 (from UniProt P20273 20-847) (receptor)”, in assay [1], the binding result is recorded as “binds”.

As to “Grb2-related adaptor protein (GRAP) (from UniProt Q13588 1-217)”, in assay [2], the binding result was “binds”.

Turning to “Igα (CD79A) (from UniProt P11912 33-226) (receptor)”, the binding result in assay [1] is “binds”.

As to “growth factor receptor-bound 2 (Grb2) (from UniProt P62993 1-217)”, the binding entry in assay [2] is “binds”.

B1: Gab1 (protein, UniProt Q13480 1-694)
chain: MSGGEVVCSGWLRKSPPEKKLKRYAWKRRWFVLRSGRLTGDPDVLEYYKNDHAKKPIRIIDLNLCQQVDAGLTFNKKEFENSYIFDINTIDRIFYLVADSEEEMNKWVRCICDICGFNPTEEDPVKPPGSSLQAPADLPLAINTAPPSTQADSSSATLPPPYQLINVPPHLETLGIQEDPQDYLLLINCQSKKPEPTRTHADSAKSTSSETDCNDNVPSHKNPASSQSKHGMNGFFQQQMIYDSPPSRAPSASVDSSLYNLPRSYSHDVLPKVSPSSTEADGELYVFNTPSGTSSVETQMRHVSISYDIPPTPGNTYQIPRTFPEGTLGQTSKLDTIPDIPPPRPPKPHPAHDRSPVETCSIPRTASDTDSSYCIPTAGMSPSRSNTISTVDLNKLRKDASSQDCYDIPRAFPSDRSSSLEGFHNHFKVKNVLTVGSVSSEELDENYVPMNPNSPPRQHSSSFTEPIQEANYVPMTPGTFDFSSFGMQVPPPAHMGFRSSPKTPPRRPVPVADCEPPPVDRNLKPDRKVKPAPLEIKPLPEWEELQAPVRSPITRSFARDSSRFPMSPRPDSVHSTTSSSDSHDSEENYVPMNPNLSSEDPNLFGSNSLDGGSSPMIKPKGDKQVEYLDLDLDSGKSTPPRKQKSSGSGSSVADERVDYVVVDQQKTLALKSTREAWTDGRQSTESETPAKSVK
As to B1, in assay [1], the binding result is on record as “binds”.
